From publication PMC7291619
Results are given in words; binding and its absence hold for the method and conditions named. In cells and extracts the contact can be indirect. These calls come from enrichment with a bait or labelling near it, and not all partners need be listed.

By UniProt entry, the sequences of proteins in these tests, tags left out. Where a name states a change or a piece, a line headed by the entry shows the natural chain unless it says otherwise.
UniProt Q57WE8: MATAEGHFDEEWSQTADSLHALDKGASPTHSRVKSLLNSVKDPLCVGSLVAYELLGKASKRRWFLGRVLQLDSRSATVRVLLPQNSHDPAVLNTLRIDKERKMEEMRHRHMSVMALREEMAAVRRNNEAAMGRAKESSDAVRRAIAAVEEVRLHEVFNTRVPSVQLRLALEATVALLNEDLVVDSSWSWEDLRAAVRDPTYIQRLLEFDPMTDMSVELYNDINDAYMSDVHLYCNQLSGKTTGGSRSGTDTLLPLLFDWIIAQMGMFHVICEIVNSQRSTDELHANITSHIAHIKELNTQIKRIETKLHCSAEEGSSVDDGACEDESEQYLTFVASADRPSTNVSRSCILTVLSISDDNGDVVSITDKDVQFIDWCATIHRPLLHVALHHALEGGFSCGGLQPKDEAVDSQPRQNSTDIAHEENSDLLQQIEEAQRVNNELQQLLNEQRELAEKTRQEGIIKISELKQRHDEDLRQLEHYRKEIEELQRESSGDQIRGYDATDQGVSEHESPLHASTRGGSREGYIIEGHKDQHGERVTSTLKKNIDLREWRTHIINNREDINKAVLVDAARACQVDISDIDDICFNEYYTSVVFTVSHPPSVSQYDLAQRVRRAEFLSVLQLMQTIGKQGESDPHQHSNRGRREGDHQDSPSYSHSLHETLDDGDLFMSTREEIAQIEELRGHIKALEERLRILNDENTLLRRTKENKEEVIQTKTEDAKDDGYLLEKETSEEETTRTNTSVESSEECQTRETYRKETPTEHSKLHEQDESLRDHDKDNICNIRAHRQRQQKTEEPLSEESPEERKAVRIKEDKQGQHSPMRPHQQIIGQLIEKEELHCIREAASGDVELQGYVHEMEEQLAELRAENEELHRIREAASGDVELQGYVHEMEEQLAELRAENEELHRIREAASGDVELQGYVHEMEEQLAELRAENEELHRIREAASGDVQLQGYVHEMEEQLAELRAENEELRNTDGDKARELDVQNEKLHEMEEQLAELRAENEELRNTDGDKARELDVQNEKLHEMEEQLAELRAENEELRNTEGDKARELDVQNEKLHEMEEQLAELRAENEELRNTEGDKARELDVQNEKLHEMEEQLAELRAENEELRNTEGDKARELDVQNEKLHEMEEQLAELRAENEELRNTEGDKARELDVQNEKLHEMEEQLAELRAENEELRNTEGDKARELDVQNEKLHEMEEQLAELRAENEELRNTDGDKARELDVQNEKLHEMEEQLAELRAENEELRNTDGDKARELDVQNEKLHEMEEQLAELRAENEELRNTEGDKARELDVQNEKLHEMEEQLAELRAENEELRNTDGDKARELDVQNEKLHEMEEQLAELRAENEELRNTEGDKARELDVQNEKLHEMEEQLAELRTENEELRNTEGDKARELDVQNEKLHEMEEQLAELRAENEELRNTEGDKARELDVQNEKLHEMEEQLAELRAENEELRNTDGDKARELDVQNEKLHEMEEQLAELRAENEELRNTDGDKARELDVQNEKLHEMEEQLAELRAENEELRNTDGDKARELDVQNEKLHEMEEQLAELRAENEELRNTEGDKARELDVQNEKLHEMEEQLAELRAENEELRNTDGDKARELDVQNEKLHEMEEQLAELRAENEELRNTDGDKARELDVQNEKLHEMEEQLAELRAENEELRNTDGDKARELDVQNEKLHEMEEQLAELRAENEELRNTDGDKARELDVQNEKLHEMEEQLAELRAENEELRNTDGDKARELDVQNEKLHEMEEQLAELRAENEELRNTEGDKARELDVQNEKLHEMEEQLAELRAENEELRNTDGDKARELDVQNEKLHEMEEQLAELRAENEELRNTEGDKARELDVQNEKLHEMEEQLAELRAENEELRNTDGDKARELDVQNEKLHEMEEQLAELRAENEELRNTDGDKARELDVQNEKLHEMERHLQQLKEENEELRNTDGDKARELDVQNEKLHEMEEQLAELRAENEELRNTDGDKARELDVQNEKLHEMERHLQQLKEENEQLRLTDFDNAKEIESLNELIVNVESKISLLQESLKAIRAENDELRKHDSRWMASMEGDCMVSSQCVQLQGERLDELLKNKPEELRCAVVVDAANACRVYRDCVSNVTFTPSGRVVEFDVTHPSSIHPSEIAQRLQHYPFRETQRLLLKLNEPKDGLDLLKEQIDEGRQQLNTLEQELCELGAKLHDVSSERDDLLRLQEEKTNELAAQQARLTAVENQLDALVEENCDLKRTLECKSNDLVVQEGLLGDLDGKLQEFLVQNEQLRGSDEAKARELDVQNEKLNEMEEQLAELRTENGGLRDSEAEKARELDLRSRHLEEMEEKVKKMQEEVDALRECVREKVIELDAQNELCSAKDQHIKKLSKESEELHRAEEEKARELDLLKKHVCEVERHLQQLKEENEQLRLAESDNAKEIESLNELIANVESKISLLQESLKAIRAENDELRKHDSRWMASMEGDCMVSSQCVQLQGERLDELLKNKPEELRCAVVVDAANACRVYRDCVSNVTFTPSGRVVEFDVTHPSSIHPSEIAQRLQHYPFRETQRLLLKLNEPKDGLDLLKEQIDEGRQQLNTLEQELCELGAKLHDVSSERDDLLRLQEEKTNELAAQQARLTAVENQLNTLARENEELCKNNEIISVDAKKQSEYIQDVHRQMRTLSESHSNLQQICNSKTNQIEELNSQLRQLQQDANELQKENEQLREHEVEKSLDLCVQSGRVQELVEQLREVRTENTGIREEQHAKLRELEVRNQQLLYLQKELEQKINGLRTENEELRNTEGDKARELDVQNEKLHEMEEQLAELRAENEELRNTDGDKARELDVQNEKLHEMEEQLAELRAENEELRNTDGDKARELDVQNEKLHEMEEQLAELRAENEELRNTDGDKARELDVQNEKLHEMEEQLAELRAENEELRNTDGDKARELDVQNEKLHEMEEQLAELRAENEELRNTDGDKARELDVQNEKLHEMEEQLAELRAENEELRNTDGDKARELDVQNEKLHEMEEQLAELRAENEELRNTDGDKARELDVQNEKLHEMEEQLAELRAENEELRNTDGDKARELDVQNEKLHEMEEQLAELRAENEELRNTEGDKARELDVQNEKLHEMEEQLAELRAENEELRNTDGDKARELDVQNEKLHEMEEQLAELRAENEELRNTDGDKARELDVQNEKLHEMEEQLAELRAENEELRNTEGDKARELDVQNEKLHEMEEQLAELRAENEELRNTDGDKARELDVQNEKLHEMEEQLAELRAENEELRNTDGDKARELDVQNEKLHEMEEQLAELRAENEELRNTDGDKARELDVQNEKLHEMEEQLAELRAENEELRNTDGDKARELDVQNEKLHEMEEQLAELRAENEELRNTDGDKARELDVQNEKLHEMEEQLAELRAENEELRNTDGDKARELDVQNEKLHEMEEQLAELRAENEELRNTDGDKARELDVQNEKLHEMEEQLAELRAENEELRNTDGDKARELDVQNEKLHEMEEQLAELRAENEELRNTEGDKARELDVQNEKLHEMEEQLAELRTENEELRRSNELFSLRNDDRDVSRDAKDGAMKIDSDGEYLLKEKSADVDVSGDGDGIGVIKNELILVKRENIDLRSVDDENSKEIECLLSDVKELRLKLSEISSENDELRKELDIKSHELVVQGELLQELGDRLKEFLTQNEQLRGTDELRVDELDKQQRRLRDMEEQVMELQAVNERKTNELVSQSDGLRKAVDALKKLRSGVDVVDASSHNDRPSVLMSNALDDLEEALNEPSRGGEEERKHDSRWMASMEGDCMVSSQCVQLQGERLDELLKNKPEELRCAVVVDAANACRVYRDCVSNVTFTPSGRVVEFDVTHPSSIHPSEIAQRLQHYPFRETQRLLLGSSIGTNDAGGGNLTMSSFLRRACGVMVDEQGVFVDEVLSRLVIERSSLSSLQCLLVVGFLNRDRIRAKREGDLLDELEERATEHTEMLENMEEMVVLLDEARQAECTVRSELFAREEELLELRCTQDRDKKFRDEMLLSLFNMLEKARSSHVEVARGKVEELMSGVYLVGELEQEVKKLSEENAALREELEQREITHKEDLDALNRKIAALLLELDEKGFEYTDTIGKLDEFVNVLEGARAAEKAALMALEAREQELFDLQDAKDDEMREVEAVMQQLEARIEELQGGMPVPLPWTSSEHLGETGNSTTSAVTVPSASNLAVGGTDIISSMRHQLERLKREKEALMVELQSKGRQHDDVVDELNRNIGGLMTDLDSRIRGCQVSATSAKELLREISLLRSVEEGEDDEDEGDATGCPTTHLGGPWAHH
UniProt Q57WL4: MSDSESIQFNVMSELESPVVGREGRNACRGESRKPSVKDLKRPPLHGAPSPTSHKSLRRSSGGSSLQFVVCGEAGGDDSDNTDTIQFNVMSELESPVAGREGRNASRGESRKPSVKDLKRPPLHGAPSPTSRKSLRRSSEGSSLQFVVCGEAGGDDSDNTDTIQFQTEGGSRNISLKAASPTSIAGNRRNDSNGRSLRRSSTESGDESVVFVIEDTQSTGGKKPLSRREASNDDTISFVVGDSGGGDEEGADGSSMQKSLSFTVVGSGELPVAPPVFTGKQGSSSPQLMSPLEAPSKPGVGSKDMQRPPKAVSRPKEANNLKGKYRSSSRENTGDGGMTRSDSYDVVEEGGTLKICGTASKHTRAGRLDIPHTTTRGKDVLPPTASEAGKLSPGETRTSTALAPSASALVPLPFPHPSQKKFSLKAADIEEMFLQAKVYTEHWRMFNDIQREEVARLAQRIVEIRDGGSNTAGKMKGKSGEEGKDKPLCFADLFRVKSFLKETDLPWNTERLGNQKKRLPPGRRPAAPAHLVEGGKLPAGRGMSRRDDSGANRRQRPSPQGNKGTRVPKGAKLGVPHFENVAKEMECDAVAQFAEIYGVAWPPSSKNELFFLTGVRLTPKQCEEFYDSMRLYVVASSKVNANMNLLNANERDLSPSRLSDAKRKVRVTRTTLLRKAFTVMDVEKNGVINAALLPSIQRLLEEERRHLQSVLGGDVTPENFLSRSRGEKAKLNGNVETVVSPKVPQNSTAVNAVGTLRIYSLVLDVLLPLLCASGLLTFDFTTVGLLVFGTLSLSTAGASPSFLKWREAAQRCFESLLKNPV
UniProt Q57UR7: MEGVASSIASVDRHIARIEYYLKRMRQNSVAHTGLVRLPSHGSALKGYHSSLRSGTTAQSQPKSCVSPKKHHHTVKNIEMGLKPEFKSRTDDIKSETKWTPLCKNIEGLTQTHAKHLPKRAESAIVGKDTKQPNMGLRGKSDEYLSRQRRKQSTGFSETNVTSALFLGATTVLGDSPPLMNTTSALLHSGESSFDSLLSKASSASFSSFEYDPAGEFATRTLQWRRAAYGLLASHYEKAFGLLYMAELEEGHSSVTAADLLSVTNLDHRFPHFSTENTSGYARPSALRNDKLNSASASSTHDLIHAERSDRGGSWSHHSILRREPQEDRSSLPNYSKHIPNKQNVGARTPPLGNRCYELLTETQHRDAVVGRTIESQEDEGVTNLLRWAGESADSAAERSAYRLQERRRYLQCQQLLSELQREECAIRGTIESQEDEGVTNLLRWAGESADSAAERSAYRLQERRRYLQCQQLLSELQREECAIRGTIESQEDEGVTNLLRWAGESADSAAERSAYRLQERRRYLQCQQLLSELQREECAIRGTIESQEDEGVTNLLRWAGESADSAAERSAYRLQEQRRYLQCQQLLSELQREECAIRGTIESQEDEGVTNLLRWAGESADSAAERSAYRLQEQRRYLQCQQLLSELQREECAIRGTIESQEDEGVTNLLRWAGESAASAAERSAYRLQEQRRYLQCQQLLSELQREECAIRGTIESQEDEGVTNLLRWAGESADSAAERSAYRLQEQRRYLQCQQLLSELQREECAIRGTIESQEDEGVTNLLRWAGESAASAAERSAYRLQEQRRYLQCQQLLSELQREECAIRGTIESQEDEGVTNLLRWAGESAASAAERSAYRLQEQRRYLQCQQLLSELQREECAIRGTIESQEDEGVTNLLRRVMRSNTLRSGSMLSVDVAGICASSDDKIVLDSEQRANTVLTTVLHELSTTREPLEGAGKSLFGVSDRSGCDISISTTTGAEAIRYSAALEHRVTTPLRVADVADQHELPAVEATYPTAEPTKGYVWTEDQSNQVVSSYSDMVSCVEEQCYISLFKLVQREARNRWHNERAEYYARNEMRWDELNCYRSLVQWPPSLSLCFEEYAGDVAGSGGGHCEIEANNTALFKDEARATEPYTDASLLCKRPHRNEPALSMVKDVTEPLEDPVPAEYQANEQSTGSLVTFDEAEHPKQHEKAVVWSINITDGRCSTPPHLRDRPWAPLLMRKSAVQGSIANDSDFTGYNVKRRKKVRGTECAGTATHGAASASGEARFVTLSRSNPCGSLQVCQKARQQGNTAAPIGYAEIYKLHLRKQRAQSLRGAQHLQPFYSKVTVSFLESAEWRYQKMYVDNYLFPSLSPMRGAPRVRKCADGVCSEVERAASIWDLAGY

Target: Myc-BirA*-TbSpef1 (Trypanosoma brucei) (UniProt Q583Z0)
Assay: proximity labelling; BioID in T. brucei procyclic cells with endogenously expressed BirA* fusions of TbSpef1; 50 uM biotin for 24 h; NP-40-resistant cytoskeleton solubilised in 0.4% SDS, 500 mM NaCl; streptavidin beads; LC-MS/MS; wild-type 29-13 cells as control; three experiments (two with the N-terminal fusion, one with the C-terminal fusion)

Row | binding | Substance
1 | binds | FAZ10 (from UniProt Q57WE8)
2 | binds | Tb927.3.2760 (from UniProt Q57ZN6)
3 | binds | Tb927.4.4180 (from UniProt Q57Y22)
4 | binds | Tb927.5.570 (from UniProt Q57VV6)
5 | binds | Tb927.6.1220 (from UniProt Q585C5)
6 | binds | Tb927.8.8160 (from UniProt Q57WL4)
7 | binds | Tb927.10.12720 (from UniProt Q388X1)
8 | binds | Tb927.11.1220 (from UniProt Q387D0)
9 | binds | TbSAF1 (TbSpef1-Associated Factor 1) (from UniProt Q57UR7)
